Reference: patent US20190169241A1 (BOARD OF TRUSTEES OF THE UNIVERSITY OF ILLINOIS, published 2019)
No constants are given. Whether binding was seen depends on the method and setting. In cells and extracts the contact can be indirect. Some binding calls cover weakened binding; strength is not graded here.

The chains behind the UniProt entries cited, without tags or fusion partners. Residues count along the entry.
UniProt P35968, residues 20-1356: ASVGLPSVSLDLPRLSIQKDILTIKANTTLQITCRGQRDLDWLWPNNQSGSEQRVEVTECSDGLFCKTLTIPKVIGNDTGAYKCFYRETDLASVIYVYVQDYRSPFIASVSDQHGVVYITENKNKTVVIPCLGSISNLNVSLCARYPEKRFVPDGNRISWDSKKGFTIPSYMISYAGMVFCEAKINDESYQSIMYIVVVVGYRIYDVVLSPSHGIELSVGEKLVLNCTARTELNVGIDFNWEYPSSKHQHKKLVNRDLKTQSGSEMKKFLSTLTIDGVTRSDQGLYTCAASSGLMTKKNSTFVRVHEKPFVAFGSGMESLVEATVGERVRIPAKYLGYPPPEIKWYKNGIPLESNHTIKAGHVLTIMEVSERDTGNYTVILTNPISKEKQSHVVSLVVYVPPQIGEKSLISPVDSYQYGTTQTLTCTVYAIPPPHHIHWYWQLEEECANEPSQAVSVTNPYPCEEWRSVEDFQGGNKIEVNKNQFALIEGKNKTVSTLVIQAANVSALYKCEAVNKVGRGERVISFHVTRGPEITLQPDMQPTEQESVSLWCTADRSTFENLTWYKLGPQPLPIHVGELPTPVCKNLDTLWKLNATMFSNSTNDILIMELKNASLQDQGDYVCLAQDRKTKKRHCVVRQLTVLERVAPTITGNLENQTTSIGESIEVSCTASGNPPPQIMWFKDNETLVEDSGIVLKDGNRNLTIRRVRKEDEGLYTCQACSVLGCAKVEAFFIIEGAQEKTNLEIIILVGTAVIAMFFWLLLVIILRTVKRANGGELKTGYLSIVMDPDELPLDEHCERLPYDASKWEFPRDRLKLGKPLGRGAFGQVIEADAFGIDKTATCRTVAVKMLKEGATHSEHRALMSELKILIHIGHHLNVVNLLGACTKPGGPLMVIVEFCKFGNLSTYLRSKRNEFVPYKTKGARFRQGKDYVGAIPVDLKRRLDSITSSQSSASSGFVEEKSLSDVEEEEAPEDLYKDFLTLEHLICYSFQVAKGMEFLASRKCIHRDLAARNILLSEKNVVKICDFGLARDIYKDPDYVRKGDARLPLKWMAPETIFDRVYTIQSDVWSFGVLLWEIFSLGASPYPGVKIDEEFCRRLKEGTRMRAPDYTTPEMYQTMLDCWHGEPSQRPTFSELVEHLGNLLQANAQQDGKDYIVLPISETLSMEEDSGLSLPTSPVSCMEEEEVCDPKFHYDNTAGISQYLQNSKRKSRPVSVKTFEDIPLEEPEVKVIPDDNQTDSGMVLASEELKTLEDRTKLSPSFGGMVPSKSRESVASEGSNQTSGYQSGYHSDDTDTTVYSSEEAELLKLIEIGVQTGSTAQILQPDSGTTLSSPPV

Molecular target: vascular endothelial growth factor receptor 2 (VEGFR2), endogenous, from HUVEC lysates (human) (UniProt P35968)
Experiment: pull-down from HUVEC lysate with recombinant protein on beads, anti-VEGFR2 western blot

- binding: binds
B1: DUF2C (residues 1217-1281 of KIF13B), recombinant protein from bacteria (protein, human, UniProt Q9NQT8 1217-1281, looked up, not shown: small tags and cut ends)
chain: HDGEVKAEASWDSAVHGCPQLSRGTPVDERLFLIVRVTVQLSHPADMQLVLRKRICVNVHGRQGF
